In patent US20160304573A1, “FIBROMODULIN PEPTIDE” (The Regents of the University of California, priority 2010, published 2016):
No constants are given. Whether binding was seen depends on the method and setting. Some entries that bind do so weakly or less than the wild type.

Molecular target: T1, TGF-β3 (Homo sapiens (Human)) (UniProt P10600)
T1 sequence: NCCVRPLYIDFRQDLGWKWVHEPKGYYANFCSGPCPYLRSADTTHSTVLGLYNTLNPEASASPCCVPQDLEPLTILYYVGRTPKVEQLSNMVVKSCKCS
Assay: biotinylated protein on avidin resin, unbound TGF-β read by Mv1Lu growth inhibition (MTT)

binding: binds
B1: Recombinant human FMOD (fibromodulin, whole protein) obtained from CHO-K1 (protein, not shown: small tags and cut ends)
chain: QYEDDPHWWFHYLRSQQSTYYDPYDPYPYETYEPYPYGVDEGPAYTYGSPSPPDPRDCPQECDCPPNFPTAMYCDNRNLKYLPFVPSRMKYVYFQNNQITSIQEGVFDNATGLLWIALHGNQITSDKVGRKVFSKLRHLERLYLDHNNLTRMPGPLPRSLRELHLDHNQISRVPNNALEGLENLTALYLQHNEIQEVGSSMRGLRSLILLDLSYNHLRKVPDGLPSALEQLYMEHNNVYTVPDSYFRGAPKLLYVRLSHNSLTNNGLASNTFNSSSLLELDLSYNQLQKIPPVNTNLENLYLQGNRINEFSISSFCTVVDVVNFSKLQVLRLDGNEIKRSAMPADAPLCLRLASLIEI
